Experiment [1] deals with Flag-HDAC4 (expressed in HEK-293 cells) (human) (UniProt P56524). The experiment in a line: co-IP; HEK-293 cells transfected with GFP-GATA1 and Flag-HDAC3 or Flag-HDAC4; lysates immunoprecipitated with Flag antibodies, immunoblotted with Flag and GFP antibodies.
For experiment [2], the target named is Flag-HDAC3 (expressed in HEK-293 cells) (human) (UniProt O15379). The description is as above.
In experiment [3] the target is GST-HDAC3 fusion protein (human) (UniProt O15379). The experiment in a line: pull-down; GST pull-down in vitro: GST-HDAC3, GST-HDAC4 or GST-GATA1 fusion protein as bait, incubated with in vitro translated Myc-GATA1 or Flag-HDAC3/4; only the target purified.
The target in experiment [4] is GST-HDAC4 fusion protein (human) (UniProt P56524). The experiment is described as above.
Experiment [5] addresses GST-GATA1 fusion protein (human) (UniProt P15976). Described as above.
The target of experiment [6] is GFP-GATA1 (expressed in MCF-7 cells) (human) (UniProt P15976). In words: co-IP; MCF-7 cells stably infected with shPAK5 (PAK5 knock-down) or control, co-transfected with plasmids; lysates immunoprecipitated with anti-GFP antibody, immunoblotted with anti-Flag and anti-GFP. (In western blotting, separated proteins are transferred to a membrane and probed.)
Experiment [7] deals with GFP-GATA1 (expressed in HEK-293 cells) (human) (UniProt P15976). The experiment in a line: co-IP; HEK-293 cells transfected with GFP-GATA1 (wt or S161A S187A) and Flag-HDAC3/4, with or without Myc-PAK5 wt/KM; lysates immunoprecipitated with anti-GFP antibody, immunoblotted with anti-Flag and anti-GFP.

Chains of the proteins cited; added tags and fusions are not shown.
UniProt P56524: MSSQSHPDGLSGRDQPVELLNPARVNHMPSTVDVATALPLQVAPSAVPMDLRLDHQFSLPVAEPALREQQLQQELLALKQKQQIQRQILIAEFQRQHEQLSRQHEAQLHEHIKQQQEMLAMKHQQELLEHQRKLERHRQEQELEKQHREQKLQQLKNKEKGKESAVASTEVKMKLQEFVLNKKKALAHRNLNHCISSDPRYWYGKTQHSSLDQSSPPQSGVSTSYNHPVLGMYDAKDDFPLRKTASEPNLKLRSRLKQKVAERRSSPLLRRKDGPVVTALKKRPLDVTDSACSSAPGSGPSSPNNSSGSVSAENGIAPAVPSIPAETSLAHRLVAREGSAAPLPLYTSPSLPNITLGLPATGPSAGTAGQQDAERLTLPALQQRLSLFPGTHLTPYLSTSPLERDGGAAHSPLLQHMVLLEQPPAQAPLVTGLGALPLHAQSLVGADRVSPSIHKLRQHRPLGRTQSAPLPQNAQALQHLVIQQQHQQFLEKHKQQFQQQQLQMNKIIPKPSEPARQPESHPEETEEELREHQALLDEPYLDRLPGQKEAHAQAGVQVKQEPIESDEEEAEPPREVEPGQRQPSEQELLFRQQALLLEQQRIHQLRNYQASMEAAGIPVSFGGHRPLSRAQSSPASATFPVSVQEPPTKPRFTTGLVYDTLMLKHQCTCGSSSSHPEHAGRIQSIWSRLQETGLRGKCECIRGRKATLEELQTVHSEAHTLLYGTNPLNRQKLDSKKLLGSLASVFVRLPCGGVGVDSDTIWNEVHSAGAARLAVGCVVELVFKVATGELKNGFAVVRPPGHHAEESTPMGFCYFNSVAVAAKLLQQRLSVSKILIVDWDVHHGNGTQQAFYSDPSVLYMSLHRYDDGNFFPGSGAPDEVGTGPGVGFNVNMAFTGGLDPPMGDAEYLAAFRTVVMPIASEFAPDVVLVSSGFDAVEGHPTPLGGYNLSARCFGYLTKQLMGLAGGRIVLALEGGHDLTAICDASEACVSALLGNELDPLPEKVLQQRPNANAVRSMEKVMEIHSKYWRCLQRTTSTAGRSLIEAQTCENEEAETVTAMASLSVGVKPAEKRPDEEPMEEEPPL
UniProt O15379: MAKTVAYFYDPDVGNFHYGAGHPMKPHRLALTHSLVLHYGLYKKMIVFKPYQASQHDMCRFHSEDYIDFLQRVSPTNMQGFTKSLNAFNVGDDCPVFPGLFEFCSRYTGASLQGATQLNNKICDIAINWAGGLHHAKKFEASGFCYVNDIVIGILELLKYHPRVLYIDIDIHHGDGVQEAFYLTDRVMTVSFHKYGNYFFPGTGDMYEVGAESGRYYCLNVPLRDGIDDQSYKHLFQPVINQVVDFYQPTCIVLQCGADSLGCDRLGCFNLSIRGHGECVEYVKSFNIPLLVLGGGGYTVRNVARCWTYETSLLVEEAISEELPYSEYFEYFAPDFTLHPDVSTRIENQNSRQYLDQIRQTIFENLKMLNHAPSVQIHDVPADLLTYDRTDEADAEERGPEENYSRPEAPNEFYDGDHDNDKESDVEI
UniProt P15976: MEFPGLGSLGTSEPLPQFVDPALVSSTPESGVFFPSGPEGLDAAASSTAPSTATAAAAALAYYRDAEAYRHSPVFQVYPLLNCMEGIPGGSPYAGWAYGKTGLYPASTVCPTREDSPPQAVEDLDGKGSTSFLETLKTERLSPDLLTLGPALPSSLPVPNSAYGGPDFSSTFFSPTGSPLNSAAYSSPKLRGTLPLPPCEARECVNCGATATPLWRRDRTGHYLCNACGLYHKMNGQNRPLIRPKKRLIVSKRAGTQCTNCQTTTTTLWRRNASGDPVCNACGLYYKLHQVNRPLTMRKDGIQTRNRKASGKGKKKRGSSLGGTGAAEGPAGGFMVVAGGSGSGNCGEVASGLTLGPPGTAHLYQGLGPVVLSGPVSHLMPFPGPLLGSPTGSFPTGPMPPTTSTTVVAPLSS

These are yes or no findings as the source states them, for the method shown. In cells and extracts the contact can be indirect. Some binding calls cover weakened binding; strength is not graded here.

For “GFP-GATA1 (expressed in HEK-293 cells) (from UniProt P15976 1-413)”, the binding result in experiment [1] and in experiment [2] was “binds” throughout.
As for “Myc-GATA1 (in vitro translated) (from UniProt P15976 1-413)”, the binding result in experiment [3] and in experiment [4] was “binds” in each case.
Consider “Flag-HDAC3 (in vitro translated) (from UniProt O15379 1-428)”, for which the binding result in experiment [5] is “binds”.
As for “Flag-HDAC3 (expressed in MCF-7 cells) (from UniProt O15379 1-428)”, the binding entry in experiment [6] is “binds”.
For “Flag-HDAC3 (expressed in HEK-293 cells) (from UniProt O15379 1-428)”, in experiment [7], the binding entry is listed as “binds”.

(Values after PMC4414194.)
